# Source: the supplement of paper PMC10849652
# The chains behind the UniProt entries cited, without tags or fusion partners. Where a name states a change or a piece, a line headed by the entry shows the natural chain unless it says otherwise.
# UniProt Q9NW64: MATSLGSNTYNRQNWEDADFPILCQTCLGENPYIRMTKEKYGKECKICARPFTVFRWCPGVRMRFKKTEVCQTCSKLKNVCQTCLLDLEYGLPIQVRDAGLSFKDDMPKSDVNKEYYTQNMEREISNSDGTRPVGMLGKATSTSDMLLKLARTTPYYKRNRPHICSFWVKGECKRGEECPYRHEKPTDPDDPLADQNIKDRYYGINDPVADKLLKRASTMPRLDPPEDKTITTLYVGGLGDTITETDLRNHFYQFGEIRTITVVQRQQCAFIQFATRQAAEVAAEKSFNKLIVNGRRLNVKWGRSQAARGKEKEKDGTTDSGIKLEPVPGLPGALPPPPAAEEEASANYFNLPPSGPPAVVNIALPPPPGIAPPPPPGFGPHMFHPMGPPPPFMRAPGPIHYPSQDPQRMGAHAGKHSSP
# UniProt P62834: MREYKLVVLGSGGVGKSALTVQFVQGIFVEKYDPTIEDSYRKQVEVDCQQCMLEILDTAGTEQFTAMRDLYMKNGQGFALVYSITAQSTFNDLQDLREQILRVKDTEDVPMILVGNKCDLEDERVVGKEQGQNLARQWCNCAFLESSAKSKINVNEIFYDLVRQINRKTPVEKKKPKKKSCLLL
# UniProt P61019: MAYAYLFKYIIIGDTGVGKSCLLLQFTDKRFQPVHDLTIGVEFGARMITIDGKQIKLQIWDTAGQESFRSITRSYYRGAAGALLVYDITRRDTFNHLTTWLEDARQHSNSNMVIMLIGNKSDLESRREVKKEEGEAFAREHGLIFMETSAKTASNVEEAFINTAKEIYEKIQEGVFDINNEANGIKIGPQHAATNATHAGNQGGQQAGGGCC
# UniProt O15315: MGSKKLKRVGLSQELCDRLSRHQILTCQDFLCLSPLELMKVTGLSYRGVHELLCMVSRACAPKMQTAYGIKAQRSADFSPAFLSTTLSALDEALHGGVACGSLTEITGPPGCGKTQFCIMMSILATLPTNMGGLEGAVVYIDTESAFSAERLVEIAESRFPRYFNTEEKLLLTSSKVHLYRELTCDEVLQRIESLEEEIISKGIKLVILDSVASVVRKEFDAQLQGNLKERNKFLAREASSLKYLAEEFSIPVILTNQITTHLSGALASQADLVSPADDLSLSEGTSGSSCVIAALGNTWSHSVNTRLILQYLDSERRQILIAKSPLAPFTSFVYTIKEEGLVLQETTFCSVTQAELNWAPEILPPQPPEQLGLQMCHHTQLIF
# UniProt Q9Y3L5: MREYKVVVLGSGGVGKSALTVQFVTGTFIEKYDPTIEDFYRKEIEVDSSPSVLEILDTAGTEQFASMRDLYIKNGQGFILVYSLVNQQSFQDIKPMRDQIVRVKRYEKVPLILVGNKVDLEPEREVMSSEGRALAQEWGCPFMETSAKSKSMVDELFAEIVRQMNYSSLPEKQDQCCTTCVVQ
# UniProt Q96PK6: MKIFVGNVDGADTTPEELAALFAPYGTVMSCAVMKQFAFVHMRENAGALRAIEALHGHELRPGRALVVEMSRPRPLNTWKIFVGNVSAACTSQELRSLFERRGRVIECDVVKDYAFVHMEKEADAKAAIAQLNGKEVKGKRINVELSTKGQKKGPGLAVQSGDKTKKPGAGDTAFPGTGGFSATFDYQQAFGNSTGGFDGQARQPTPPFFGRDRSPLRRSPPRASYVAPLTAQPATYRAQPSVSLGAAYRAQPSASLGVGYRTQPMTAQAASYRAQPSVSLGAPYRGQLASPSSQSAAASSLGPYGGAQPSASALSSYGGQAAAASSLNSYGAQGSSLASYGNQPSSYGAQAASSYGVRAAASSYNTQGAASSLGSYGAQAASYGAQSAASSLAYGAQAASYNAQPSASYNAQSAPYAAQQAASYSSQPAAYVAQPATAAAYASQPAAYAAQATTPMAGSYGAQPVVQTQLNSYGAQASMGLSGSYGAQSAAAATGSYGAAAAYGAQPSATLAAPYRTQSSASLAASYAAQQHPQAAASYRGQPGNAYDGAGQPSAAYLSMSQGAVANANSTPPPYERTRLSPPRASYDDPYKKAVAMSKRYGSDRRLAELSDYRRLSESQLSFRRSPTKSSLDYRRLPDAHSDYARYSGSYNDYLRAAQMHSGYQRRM
# UniProt Q5T8P6: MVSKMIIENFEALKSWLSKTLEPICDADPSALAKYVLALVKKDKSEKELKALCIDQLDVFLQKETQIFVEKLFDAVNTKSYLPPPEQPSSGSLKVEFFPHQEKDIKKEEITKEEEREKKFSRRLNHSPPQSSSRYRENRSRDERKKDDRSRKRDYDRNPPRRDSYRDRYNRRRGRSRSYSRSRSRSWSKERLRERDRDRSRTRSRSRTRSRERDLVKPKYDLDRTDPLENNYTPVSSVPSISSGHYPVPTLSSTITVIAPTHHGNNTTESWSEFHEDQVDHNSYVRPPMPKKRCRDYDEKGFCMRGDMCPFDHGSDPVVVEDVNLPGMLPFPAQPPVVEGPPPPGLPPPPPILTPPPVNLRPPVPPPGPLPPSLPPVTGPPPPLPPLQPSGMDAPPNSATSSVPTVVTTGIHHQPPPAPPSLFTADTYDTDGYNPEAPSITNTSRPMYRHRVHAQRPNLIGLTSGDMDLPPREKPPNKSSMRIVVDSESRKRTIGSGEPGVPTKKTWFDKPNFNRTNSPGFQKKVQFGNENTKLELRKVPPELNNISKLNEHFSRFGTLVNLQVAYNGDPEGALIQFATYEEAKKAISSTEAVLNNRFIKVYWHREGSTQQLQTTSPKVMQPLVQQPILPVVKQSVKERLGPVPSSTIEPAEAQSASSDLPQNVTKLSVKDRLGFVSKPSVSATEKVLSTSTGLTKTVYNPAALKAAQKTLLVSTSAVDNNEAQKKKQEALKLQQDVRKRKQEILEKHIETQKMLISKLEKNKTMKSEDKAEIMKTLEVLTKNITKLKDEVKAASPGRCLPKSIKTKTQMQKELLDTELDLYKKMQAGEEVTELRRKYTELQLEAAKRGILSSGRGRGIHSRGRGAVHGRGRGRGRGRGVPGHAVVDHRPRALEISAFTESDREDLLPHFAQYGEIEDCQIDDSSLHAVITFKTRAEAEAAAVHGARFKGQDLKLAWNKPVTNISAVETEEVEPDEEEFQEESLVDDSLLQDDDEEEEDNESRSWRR
# UniProt O75884: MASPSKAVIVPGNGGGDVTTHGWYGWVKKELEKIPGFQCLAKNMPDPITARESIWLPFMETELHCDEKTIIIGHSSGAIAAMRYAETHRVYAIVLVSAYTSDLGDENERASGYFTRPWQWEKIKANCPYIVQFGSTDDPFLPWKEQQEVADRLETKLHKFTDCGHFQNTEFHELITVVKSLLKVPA
# UniProt P20337: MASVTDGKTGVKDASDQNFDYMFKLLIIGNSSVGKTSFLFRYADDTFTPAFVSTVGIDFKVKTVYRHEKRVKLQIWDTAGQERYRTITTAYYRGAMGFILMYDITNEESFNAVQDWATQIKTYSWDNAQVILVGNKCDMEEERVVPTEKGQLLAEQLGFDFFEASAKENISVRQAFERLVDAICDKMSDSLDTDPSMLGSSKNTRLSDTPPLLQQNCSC
# UniProt Q7Z5J4: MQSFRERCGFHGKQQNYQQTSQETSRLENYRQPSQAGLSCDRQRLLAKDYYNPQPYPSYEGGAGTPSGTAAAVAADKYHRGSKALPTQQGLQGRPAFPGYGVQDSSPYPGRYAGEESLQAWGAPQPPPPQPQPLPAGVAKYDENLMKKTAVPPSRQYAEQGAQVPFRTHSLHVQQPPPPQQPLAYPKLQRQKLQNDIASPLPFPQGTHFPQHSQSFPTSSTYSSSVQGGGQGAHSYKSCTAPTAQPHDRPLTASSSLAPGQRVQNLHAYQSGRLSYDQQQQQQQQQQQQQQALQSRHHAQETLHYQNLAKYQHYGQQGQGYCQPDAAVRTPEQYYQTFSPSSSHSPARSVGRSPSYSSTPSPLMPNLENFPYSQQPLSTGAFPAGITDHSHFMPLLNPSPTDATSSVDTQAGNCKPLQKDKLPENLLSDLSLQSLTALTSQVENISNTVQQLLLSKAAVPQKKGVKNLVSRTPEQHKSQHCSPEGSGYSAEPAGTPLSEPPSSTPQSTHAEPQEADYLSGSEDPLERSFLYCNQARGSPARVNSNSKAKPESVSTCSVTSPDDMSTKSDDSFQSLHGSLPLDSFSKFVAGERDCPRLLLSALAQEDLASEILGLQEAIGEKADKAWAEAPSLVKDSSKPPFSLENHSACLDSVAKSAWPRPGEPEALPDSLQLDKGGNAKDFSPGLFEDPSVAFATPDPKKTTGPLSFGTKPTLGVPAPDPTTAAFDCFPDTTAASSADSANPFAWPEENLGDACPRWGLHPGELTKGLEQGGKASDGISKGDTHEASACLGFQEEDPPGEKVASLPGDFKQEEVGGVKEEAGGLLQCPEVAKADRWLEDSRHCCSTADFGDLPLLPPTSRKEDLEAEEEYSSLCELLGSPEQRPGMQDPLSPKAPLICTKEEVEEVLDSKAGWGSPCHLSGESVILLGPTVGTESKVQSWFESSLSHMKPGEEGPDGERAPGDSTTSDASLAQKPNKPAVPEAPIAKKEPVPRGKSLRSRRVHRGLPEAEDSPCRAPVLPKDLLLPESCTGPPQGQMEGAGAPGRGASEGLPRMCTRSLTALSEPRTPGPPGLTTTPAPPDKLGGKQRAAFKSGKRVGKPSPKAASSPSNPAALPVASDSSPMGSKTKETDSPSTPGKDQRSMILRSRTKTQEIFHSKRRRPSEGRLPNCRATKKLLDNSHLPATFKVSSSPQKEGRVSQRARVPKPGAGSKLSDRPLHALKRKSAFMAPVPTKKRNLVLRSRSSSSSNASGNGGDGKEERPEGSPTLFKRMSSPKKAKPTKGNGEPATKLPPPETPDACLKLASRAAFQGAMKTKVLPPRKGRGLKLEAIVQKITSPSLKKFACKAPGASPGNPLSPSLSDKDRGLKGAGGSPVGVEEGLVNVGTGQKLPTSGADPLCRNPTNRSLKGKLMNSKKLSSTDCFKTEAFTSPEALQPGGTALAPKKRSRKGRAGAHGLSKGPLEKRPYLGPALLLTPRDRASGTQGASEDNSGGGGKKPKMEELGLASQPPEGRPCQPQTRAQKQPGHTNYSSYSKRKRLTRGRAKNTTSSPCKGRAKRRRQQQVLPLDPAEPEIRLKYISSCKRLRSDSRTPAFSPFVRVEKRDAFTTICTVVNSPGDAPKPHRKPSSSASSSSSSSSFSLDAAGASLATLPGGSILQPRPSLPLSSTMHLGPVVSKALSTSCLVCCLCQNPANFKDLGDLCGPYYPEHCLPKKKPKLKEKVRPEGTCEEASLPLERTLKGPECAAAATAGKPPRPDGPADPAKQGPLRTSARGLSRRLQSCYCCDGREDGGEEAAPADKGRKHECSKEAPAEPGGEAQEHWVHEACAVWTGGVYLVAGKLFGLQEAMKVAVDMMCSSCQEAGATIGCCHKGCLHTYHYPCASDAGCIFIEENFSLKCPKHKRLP
# UniProt Q8N0V3: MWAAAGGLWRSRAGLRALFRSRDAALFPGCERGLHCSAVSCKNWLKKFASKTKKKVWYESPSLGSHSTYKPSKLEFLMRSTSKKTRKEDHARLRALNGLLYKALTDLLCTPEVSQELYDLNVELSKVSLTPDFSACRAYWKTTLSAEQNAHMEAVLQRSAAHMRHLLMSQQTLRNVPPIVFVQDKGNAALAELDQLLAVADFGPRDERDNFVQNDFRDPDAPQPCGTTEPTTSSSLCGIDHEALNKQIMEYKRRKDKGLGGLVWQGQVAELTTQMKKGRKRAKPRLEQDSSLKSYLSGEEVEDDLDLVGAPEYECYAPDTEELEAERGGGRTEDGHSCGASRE
# UniProt O95716: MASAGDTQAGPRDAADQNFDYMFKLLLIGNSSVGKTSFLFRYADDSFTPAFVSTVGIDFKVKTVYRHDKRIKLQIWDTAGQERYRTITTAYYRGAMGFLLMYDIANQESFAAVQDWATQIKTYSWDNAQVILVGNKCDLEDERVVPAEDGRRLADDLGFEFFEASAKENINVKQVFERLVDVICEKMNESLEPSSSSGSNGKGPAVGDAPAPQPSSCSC
# UniProt Q86YS3: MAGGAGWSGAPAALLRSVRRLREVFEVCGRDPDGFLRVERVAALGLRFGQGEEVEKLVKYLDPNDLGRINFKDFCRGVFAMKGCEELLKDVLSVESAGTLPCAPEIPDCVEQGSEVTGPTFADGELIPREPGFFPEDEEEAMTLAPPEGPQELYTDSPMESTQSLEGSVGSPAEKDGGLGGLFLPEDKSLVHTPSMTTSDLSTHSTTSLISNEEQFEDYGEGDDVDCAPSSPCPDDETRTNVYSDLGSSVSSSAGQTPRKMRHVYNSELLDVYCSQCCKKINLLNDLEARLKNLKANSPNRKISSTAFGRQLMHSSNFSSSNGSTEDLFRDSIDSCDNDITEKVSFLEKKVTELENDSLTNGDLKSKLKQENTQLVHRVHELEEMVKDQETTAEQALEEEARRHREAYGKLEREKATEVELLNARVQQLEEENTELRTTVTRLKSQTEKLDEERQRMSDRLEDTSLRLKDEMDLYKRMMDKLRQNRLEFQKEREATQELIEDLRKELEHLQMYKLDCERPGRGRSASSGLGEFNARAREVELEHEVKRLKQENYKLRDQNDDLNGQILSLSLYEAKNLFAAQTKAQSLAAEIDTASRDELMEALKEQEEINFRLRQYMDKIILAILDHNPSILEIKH
# Some of the results follow.
# Key:
# Assay in all cases: log2 fold change, soluble protein after heating vs DMSO (PISA); higher = thermal stabilisation; K562 cells, 10 uM, 30 min; active = over 0.2 and 3.5 SD of the protein, either way, in both replicates (recomputed)
# [1] = compound: COC1=CC=C(C=C1)CN2C=CC3=C2C=C(C=C3)C(=O)NO
# Method in brief: (§1)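 K562 cells at 2×10^6 cells/mL were treated for 30 min with 10 μM compound, and aliquots were heated for 3 min over 48°C-58°C before pooling. Extraction used PBS with 0.5% NP-40 at 4°C, and soluble protein was the supernatant after 21,000xg for 90 min, measured by TMTpro 16plex LC-MS/MS with channel sums equalised. Thermal stability values, relative to control samples and from duplicates, are log2 fold changes.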
# filanesib = compound: CON(C)C(=O)N1N=C(c2cc(F)ccc2F)S[C@@]1(CCCN)c1ccccc1 [filanesib]
# Method in brief: as §1
# idasanutlin = compound: COc1cc(C(=O)O)ccc1NC(=O)[C@@H]1N[C@@H](CC(C)(C)C)[C@](C#N)(c2ccc(Cl)cc2F)[C@H]1c1cccc(Cl)c1F [idasanutlin]
# Method in brief: as §1
# alisertib = compound: COc1cc(Nc2ncc3c(n2)-c2ccc(Cl)cc2C(c2c(F)cccc2OC)=NC3)ccc1C(=O)O [alisertib]
# Method in brief: as §1
# [2] = compound: COc1cc2nc(-c3cc(F)ccc3O)nc(N[C@@H]3CNC[C@H]3C(C)(C)O)c2cc1OC
# Method in brief: as §1
# gefitinib = compound: COc1cc2ncnc(Nc3ccc(F)c(Cl)c3)c2cc1OCCCN1CCOCC1 [gefitinib]
# Method in brief: as §1
# [3] = compound: COc1cccc2cc(-c3nc([C@H]4CC[C@H](C(=O)O)CC4)n4ncnc(N)c34)[nH]c12
# Method in brief: as §1
# lapatinib = compound: CS(=O)(=O)CCNCc1ccc(-c2ccc3ncnc(Nc4ccc(OCc5cccc(F)c5)c(Cl)c4)c3c2)o1 [lapatinib]
# Method in brief: as §1
# zotarolimus = compound: CO[C@H]1C[C@@H]2CC[C@@H](C)[C@@](O)(O2)C(=O)C(=O)N2CCCC[C@H]2C(=O)O[C@H]([C@H](C)C[C@@H]2CC[C@H](n3cnnn3)[C@H](OC)C2)CC(=O)[C@H](C)/C=C(\C)[C@@H](O)[C@@H](OC)C(=O)[C@H](C)C[C@H](C)/C=C/C=C/C=C/1C [zotarolimus]
# Method in brief: as §1
# pictilisib = compound: CS(=O)(=O)N1CCN(Cc2cc3nc(-c4cccc5[nH]ncc45)nc(N4CCOCC4)c3s2)CC1 [pictilisib]
# Method in brief: as §1
Target,log2 fold change [1],log2 fold change (filanesib),log2 fold change (idasanutlin),log2 fold change (alisertib),log2 fold change [2],log2 fold change (gefitinib),log2 fold change [3],log2 fold change (lapatinib),log2 fold change (zotarolimus),log2 fold change (pictilisib)
RBBP7 (UniProt Q16576),inactive: -0.008,inactive: -0.062,inactive: -0.025,inactive: 0.002,inactive: 0.161,inactive: 0.036,inactive: 0.026,inactive: -0.032,,
RBM22 (UniProt Q9NW64),inactive: -0.105,inactive: 0.096,inactive: 0.056,inactive: -0.002,inactive: 0.021,inactive: -0.058,inactive: 0.083,inactive: 0.036,inactive: 0,inactive: -0.031
RABGGTB (UniProt P53611),inactive: -0.034,inactive: 0.024,inactive: 0.036,inactive: -0.052,inactive: 0.008,inactive: 0.019,inactive: 0.032,inactive: -0.048,inactive: 0.053,inactive: 0.083
RABGGTA (UniProt Q92696),inactive: 0.019,inactive: -0.013,inactive: -0.019,inactive: 0.016,inactive: -0.007,inactive: 0.041,inactive: 0.017,inactive: 0.002,inactive: 0.022,inactive: 0.067
RAD51D (UniProt O75771),inactive: 0.001,,inactive: -0.047,inactive: -0.069,inactive: 0.031,inactive: 0.067,inactive: 0.03,inactive: 0.048,inactive: -0.313,inactive: 0.423
RASA2 (UniProt Q15283),inactive: -0.372,inactive: -0.062,inactive: 0.233,inactive: -0.259,inactive: 0.45,,inactive: -0.306,inactive: -0.37,inactive: -0.221,inactive: -0.208
RAP1A (UniProt P62834),inactive: -0.053,inactive: 0.006,inactive: -0.007,inactive: -0.027,inactive: 0.008,inactive: 0.017,inactive: 0.005,inactive: -0.006,inactive: -0.027,inactive: 0.059
RAB2A (UniProt P61019),inactive: -0.044,inactive: -0.048,inactive: -0.03,inactive: -0.036,inactive: 0.004,inactive: -0.004,inactive: 0.059,inactive: 0.032,inactive: -0.092,inactive: 0.06
RAB11FIP1 (UniProt Q6WKZ4),inactive: -0.024,inactive: 0.004,inactive: -0.015,inactive: 0.368,inactive: -0.03,inactive: -0.009,inactive: 0.007,inactive: 0.01,inactive: 0,inactive: -0.107
RAPGEF6 isoform 4 (UniProt Q8TEU7),inactive: -0.063,inactive: -0.123,inactive: 0.055,inactive: 0.01,,inactive: 0.121,inactive: -0.403,,inactive: 0.168,inactive: -0.196
RACK1 (UniProt D6RF23),inactive: -0.472,inactive: 0.022,inactive: 0.029,inactive: 0.138,inactive: 0.142,,inactive: 0.291,inactive: -0.36,inactive: -0.216,inactive: 0.187
RBM17 (UniProt Q96I25),inactive: 0.026,inactive: 0.038,inactive: 0.121,inactive: -0.055,inactive: -0.031,inactive: 0.003,inactive: 0.019,inactive: 0,inactive: 0.064,inactive: -0.276
RAD51B (UniProt O15315),,inactive: -0.028,inactive: -0.001,inactive: 0.101,inactive: 0.072,inactive: -0.02,inactive: 0.093,inactive: 0.004,inactive: -0.028,inactive: -0.044
RAP2C (UniProt Q9Y3L5),,inactive: -0.011,inactive: 0.008,inactive: -0.073,inactive: 0.016,inactive: -0.01,inactive: 0.031,inactive: 0.1,inactive: -0.031,active: -0.799
RBBP8 isoform 2 (UniProt Q99708),inactive: -0.049,,inactive: 0.137,,inactive: 0.178,,,inactive: -0.012,,
RAB30 (UniProt Q15771),inactive: 0.044,,inactive: 0.044,inactive: -0.085,inactive: 0.047,inactive: 0.087,inactive: 0.079,inactive: 0.021,inactive: 0.153,inactive: -0.074
RASSF3 (UniProt Q86WH2),,,inactive: 0.032,inactive: -0.172,inactive: 0.12,inactive: 0.035,inactive: -0.003,inactive: -0.028,inactive: 0.145,inactive: 0
RBM14 (UniProt Q96PK6),inactive: 0.154,,inactive: -0.02,inactive: -0.002,inactive: -0.047,,inactive: -0.101,inactive: -0.052,inactive: -0.057,inactive: 0.004
RBCK1 (UniProt Q9BYM8),,,inactive: -0.038,,inactive: 0.142,,,inactive: -0.098,inactive: 0.221,
RBM28 (UniProt Q9NW13),,inactive: 0.375,inactive: 0.229,inactive: 0.101,inactive: 0.045,,inactive: -0.01,inactive: -0.116,inactive: -0.086,
RBBP4 isoform 2 (UniProt Q09028),,,inactive: -0.019,inactive: 0.044,,,inactive: 0.031,,inactive: -0.057,inactive: 0.078
RBL1 (UniProt P28749),,,,,,inactive: -0.11,,,,inactive: 0.554
RAP1B (UniProt F5GWU8),inactive: -0.086,,inactive: 0.058,,inactive: 0.207,,,inactive: -0.043,inactive: 0.114,

# Not a retest: entries from further up.
Target,log2 fold change [1],log2 fold change (filanesib),log2 fold change (idasanutlin),log2 fold change (alisertib),log2 fold change [2],log2 fold change (gefitinib),log2 fold change [3],log2 fold change (lapatinib),log2 fold change (zotarolimus),log2 fold change (pictilisib)
RAP1A (UniProt P62834),inactive: -0.053,inactive: 0.006,inactive: -0.007,inactive: -0.027,inactive: 0.008,inactive: 0.017,inactive: 0.005,inactive: -0.006,inactive: -0.027,inactive: 0.059
RAB2A (UniProt P61019),inactive: -0.044,inactive: -0.048,inactive: -0.03,inactive: -0.036,inactive: 0.004,inactive: -0.004,inactive: 0.059,inactive: 0.032,inactive: -0.092,inactive: 0.06

# The results go on.

Target,log2 fold change [1],log2 fold change (filanesib),log2 fold change (idasanutlin),log2 fold change (alisertib),log2 fold change [2],log2 fold change (gefitinib),log2 fold change [3],log2 fold change (lapatinib),log2 fold change (zotarolimus),log2 fold change (pictilisib)
RAB11FIP5 (UniProt Q9BXF6),,,,,inactive: -0.03,,,inactive: 0.184,,
RALGPS2 (UniProt Q86X27),inactive: 0.246,,inactive: -0.062,inactive: 0.109,,,inactive: 0.132,,inactive: 0.038,inactive: 0.165
RBBP5 isoform 2 (UniProt Q15291),,inactive: 0.038,inactive: 0.038,inactive: -0.144,inactive: -0.068,inactive: -0.215,inactive: 0.055,inactive: 0.09,,inactive: 0.118
RBM23 (UniProt Q86U06),,inactive: 0.171,,,inactive: -0.179,,,inactive: 0.215,inactive: 0.104,
RBM26 isoform 3 (UniProt Q5T8P6),,inactive: 0.004,inactive: 0.167,,,,,,,
RBBP9 (UniProt O75884),,inactive: -0.189,,inactive: 0.343,,,inactive: 0.089,,,
RANBP3 isoform 2 (UniProt Q9H6Z4),,inactive: 0.024,,inactive: 0.002,,inactive: 0.012,inactive: 0.037,,,inactive: 0.068
R3HDM4 (UniProt Q96D70),,inactive: -0.048,inactive: -0.029,inactive: -0.328,inactive: 0.101,inactive: -0.275,inactive: 0.065,inactive: -0.072,,
RACK1 (UniProt D6RHH4),,inactive: -0.036,inactive: 0.097,inactive: 1.47,inactive: 0.382,inactive: 0.035,inactive: 0.04,inactive: -0.198,inactive: -0.165,inactive: 0.394
RBKS (UniProt Q9H477),,,inactive: -0.101,inactive: 0.195,inactive: -0.051,,inactive: 0.006,inactive: 0.009,,
RASA3 (UniProt Q14644),,,,,,,,,inactive: 0.196,inactive: 0.558
RAB3B (UniProt P20337),,inactive: -0.082,,,inactive: -0.08,,,inactive: -0.415,,inactive: 0.303
RABEP2 (UniProt Q9H5N1),,,,,,,,,inactive: -0.243,
RAB18 (UniProt H0Y6T8),inactive: -0.156,,,inactive: 0.053,,inactive: 0.038,inactive: 0.141,,inactive: -0.054,
RAI1 (UniProt Q7Z5J4),,inactive: 0.396,,inactive: 0.061,,inactive: 0.334,inactive: -0.097,,,
RAD23A isoform 3 (UniProt P54725),,,,,,inactive: -0.073,,,,inactive: 0.364
RAPGEF1 isoform 3 (UniProt Q13905),,inactive: -0.239,,inactive: 0.056,,,inactive: 0.151,,,
RBFA (UniProt Q8N0V3),,,,,inactive: -0.129,,,inactive: 0.093,,
RAB3D (UniProt O95716),,,inactive: 0.026,inactive: 0.007,inactive: 0.002,inactive: 0.243,inactive: -0.07,inactive: 0.002,inactive: -0.08,inactive: -0.153
RAB28 (UniProt P51157),inactive: -0.169,,inactive: -0.17,,,,,,inactive: 0.019,inactive: 0.113
RAB11FIP4 (UniProt Q86YS3),,inactive: 0.007,,,,,,,,
RAI14 isoform 2 (UniProt Q9P0K7),,inactive: 0.063,inactive: 0.083,inactive: 0.023,inactive: 0.056,inactive: -0.1,inactive: 0.377,inactive: -0.001,inactive: 0.244,inactive: -0.033
RASSF1 (UniProt Q9NS23),,inactive: 0.217,,,,,,,,
